According to PMC10619437:
No constants are given. Whether binding was seen depends on the method and setting. In cells and extracts the contact can be indirect. Binding can be weak; no strength is given.

The chains behind the UniProt entries cited, without tags or fusion partners. Where a name states a change or a piece, a line headed by the entry shows the natural chain unless it says otherwise.
UniProt P61586: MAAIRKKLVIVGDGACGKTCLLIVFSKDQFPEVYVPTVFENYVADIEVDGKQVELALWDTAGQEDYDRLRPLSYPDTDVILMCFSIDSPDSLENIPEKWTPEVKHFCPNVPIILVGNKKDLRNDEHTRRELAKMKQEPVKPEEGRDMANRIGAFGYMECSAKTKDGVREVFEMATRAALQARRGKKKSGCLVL
UniProt P21980: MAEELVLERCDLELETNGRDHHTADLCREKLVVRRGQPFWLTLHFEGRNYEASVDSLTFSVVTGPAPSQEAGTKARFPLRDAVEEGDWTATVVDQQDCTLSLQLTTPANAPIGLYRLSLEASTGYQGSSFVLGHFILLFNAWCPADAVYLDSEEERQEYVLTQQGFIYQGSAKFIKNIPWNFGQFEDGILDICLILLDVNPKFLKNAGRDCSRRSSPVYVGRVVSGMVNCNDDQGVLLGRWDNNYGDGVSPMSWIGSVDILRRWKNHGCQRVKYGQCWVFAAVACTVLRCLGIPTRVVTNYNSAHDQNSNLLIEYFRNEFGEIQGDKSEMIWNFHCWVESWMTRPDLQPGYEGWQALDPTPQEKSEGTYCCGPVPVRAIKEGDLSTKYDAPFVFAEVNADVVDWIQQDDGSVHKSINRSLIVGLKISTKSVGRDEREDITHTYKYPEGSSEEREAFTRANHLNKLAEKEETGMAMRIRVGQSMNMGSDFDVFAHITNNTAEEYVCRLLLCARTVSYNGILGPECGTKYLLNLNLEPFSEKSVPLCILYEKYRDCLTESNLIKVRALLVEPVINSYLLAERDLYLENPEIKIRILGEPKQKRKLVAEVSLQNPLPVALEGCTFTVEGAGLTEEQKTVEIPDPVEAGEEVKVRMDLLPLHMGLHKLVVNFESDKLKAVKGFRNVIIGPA

Biological target: Ras homolog family member A (human (endogenous in HMC)) (UniProt P61586)
Test: co-IP; RhoA immunoprecipitated with rabbit anti-RhoA antibody from vesicular fractions (C1) of HMC with or without pIgA1 (10 ug/mL, 48 h); TGase2 and RhoA detected by Western blot

Transglutaminase 2 (from UniProt P21980) (enzyme)
binding: binds
